# Test results from patent US20070270588A1, “Pyrrolopyrimidine Derivatives” (Taisho Pharmaceutical Co., Ltd., priority 2004, published 2007).
# Some entries share one result that the patent states for a list of compounds.
# Biological target: T1, CRF receptor (Macaca mulatta, UniProt Q76LL8)
# T1 sequence (Q76LL8 24-415): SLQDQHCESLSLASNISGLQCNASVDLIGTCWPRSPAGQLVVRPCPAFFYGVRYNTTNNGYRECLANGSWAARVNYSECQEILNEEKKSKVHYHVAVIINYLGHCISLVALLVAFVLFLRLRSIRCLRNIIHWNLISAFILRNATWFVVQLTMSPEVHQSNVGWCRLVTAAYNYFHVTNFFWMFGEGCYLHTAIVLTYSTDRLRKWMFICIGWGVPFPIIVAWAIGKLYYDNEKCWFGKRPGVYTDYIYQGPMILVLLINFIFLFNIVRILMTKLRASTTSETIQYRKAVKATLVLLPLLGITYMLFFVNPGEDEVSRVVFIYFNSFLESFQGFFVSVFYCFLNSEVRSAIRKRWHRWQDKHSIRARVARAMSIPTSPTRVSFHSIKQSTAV
# Assay: CRF receptor binding test
# Details: read-out: IC50 (concentration of the test drug at which binding of 125I-CRF is inhibited by 50%); monkey amygdala membranes, 125I-CRF 0.2 nM, 25° C. for 2 h
compound,measurement,value
"CCC(CC)n1ccc2c(C)nc(N(CC)c3c(C)cc(C)cc3C)nc21 [Compound 1-008, ethyl-[7-(1-ethyl-propyl)-4-methyl-7H-pyrrolo[2,3-d]pyrimidin-2-yl]-(2,4,6-trimethyl-phenyl)-amine]",IC50,≤ 200 nM
